The values that follow are results of earlier work, collected in publication PMC4042406 (British journal of haematology, 2011).

The subject of this series is most MM cell lines. To be noted: ref MacCallum, et al 2005, Raje; cited from earlier work.

Regarding `CC[C@H](CO)Nc1nc(NCc2ccccc2)c2ncn(C(C)C)c2n1` [seliciclib], the EC50 (as a rule, the concentration needed to bring the measured effect to its halfway point) was greater than 10 µM.
